In the supplement of paper PMC10849652:
The list shows a part of the results.

Protein sequences, listed by entry. Tags and fused reporters are not part of them. Lines headed by an entry give the natural chain unless they say otherwise; changes in a name come on top.
UniProt Q13636: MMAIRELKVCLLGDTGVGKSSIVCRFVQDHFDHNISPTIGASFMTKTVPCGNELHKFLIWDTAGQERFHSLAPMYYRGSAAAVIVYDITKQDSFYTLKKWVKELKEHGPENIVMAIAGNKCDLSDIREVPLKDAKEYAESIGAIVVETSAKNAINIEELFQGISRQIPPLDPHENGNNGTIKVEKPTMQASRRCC
UniProt Q9P2N5: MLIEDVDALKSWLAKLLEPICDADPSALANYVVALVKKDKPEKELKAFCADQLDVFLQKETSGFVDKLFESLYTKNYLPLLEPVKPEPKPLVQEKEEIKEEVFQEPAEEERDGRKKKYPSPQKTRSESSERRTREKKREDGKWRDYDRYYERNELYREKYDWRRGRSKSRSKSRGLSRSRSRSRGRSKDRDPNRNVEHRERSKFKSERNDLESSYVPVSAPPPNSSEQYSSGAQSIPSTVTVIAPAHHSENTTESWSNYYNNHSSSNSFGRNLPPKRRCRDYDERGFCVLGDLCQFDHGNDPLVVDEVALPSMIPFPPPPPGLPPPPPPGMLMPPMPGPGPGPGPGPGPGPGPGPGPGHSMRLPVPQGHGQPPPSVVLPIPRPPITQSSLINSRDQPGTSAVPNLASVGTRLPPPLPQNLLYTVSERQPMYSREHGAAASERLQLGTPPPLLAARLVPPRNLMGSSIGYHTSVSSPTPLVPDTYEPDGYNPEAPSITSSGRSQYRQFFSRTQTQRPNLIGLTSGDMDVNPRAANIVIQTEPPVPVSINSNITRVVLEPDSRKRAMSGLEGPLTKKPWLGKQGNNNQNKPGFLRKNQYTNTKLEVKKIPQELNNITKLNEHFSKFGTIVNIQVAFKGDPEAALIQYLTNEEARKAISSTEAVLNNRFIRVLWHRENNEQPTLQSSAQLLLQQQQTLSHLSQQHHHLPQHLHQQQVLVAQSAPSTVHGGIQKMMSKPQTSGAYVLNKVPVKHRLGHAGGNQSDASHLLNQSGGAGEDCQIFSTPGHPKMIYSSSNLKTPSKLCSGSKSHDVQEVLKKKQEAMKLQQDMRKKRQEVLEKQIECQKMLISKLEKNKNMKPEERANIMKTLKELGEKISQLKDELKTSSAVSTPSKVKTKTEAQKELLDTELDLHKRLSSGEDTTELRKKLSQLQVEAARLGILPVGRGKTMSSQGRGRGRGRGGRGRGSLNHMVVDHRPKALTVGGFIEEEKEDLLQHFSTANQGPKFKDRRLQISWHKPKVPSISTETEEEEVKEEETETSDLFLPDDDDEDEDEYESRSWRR
UniProt Q9H2M9: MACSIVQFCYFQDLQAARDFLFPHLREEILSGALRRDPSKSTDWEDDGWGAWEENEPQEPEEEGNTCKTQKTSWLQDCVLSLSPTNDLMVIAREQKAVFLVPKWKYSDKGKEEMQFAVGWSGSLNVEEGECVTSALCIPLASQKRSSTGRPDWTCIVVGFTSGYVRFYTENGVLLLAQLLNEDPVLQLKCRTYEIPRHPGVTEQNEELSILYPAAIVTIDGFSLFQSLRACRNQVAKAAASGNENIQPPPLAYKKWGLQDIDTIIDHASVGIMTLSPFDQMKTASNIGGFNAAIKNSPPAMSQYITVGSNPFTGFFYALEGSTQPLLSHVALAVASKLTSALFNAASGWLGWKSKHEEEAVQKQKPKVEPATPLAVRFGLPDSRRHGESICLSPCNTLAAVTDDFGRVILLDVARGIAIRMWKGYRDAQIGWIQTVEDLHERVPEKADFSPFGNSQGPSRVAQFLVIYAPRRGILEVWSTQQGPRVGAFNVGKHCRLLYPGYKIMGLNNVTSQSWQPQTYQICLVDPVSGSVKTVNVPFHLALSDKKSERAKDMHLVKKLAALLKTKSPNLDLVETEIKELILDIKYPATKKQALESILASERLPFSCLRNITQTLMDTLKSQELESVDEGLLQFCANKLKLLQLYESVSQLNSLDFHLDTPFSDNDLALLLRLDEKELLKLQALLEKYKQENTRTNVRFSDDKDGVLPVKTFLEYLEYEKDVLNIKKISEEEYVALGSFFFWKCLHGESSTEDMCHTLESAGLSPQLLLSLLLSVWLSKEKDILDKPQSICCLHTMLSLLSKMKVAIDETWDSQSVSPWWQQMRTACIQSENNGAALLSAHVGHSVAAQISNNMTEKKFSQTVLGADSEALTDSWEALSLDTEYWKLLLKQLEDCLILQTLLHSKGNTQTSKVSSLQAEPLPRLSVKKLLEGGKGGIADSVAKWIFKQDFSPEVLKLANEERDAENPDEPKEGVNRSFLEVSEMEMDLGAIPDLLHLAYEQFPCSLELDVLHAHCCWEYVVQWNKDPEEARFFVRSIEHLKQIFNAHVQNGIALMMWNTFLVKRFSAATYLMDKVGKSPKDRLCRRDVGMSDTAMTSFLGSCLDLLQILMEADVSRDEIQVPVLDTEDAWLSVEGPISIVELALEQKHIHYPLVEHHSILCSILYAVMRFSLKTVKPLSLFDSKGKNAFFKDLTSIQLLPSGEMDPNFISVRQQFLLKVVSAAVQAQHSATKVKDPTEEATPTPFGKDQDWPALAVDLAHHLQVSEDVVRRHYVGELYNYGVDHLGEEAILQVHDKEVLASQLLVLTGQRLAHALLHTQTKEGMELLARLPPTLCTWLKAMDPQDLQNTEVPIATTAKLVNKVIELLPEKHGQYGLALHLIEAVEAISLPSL
UniProt Q86YS6: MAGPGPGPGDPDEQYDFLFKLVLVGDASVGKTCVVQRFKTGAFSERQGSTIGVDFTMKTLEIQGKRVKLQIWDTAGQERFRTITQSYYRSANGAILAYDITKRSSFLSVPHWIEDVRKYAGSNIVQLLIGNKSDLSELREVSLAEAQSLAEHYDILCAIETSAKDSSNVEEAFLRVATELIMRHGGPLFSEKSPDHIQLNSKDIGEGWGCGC
UniProt Q9H0H5: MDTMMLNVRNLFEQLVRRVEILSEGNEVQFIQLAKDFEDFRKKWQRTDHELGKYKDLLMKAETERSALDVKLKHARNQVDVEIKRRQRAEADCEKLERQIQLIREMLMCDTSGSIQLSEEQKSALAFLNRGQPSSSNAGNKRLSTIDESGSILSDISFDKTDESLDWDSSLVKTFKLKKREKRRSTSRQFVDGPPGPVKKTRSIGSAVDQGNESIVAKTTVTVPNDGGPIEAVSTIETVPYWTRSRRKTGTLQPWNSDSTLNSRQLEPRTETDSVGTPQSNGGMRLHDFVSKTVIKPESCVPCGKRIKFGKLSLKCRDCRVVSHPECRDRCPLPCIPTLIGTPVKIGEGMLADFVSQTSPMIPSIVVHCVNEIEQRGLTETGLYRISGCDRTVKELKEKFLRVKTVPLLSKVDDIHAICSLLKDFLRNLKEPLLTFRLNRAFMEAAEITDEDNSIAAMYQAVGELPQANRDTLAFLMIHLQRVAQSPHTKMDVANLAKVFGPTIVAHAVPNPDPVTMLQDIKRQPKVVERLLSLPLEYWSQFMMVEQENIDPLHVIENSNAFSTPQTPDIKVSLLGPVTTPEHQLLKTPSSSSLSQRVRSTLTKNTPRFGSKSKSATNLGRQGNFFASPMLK
UniProt Q6WKZ4: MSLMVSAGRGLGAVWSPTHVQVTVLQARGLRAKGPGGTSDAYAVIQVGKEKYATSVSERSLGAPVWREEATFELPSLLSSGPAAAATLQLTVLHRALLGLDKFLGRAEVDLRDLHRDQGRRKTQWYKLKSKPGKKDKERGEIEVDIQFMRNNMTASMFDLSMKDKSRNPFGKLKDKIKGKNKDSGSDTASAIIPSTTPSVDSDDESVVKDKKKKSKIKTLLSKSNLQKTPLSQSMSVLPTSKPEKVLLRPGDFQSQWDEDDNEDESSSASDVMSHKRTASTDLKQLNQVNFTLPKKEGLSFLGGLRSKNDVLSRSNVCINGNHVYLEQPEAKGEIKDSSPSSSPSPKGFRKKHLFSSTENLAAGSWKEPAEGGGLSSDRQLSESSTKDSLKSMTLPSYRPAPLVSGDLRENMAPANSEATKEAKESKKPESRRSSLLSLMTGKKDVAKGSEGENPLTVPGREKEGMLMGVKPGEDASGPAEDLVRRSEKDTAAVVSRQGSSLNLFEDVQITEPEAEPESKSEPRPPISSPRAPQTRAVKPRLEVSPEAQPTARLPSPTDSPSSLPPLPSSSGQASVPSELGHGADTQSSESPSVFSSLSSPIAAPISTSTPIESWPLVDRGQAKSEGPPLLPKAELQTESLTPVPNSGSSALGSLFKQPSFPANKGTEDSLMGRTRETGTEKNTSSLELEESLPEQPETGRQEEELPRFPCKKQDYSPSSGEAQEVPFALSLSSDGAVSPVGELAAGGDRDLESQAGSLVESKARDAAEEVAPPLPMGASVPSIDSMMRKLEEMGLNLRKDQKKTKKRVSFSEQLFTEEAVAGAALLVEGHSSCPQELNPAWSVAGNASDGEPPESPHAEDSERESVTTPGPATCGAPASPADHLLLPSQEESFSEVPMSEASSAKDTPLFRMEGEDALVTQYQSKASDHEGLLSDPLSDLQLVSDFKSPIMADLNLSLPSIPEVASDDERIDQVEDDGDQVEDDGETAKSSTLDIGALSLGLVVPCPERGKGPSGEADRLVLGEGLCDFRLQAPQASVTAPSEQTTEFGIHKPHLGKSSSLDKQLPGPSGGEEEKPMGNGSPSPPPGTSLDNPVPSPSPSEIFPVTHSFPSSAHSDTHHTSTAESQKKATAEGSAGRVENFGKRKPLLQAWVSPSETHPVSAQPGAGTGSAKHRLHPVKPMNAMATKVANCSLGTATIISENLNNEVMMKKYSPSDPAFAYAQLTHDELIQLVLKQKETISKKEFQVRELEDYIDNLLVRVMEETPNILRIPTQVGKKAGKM
UniProt P61020: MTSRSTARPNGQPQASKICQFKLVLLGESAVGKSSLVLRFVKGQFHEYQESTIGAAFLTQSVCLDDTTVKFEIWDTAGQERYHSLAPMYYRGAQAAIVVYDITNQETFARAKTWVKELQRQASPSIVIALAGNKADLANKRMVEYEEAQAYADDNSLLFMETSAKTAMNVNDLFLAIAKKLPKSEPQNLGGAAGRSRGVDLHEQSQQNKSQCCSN
UniProt P51153: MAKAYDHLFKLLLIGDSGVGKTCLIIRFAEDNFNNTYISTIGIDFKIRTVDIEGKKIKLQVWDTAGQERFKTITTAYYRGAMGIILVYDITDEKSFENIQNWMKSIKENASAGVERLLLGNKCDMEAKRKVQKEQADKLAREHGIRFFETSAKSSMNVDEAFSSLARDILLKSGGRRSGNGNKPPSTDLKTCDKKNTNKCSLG
UniProt Q9H2T7: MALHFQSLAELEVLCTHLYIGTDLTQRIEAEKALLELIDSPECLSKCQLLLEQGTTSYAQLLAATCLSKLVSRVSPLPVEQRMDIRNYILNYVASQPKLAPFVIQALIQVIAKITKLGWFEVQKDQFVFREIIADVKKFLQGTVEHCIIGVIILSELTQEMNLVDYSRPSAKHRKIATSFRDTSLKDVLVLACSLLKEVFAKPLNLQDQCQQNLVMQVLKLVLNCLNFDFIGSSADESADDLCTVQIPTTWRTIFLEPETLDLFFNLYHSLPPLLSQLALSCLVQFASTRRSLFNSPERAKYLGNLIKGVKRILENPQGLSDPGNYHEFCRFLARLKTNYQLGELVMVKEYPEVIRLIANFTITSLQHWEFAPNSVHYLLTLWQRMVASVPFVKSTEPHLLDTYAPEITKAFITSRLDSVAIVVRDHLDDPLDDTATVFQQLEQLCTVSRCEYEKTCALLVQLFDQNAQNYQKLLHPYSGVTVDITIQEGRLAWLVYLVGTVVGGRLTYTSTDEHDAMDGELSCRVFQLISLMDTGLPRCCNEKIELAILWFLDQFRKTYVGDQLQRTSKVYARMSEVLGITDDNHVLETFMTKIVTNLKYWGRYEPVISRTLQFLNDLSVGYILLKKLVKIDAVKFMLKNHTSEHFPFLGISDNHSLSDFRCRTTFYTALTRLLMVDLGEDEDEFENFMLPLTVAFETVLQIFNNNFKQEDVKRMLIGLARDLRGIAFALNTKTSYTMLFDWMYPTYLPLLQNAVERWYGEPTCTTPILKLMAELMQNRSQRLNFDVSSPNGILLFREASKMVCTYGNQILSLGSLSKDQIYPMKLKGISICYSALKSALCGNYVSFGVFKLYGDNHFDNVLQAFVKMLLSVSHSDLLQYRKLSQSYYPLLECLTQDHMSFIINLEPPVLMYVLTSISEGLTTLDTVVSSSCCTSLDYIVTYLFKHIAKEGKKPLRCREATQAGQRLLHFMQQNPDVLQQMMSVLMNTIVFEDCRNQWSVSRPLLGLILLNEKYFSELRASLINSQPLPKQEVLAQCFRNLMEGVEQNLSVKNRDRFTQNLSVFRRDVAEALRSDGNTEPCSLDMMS
UniProt Q53S08: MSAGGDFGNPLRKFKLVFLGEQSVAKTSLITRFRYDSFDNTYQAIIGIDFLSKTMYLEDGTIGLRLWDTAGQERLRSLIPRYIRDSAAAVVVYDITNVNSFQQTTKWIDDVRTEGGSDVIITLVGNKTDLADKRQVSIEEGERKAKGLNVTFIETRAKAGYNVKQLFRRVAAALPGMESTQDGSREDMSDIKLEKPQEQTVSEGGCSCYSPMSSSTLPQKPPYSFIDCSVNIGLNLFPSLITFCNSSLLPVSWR

Assays:
Test in all cases: log2 fold change, soluble protein after heating vs DMSO (PISA); higher = thermal stabilisation; K562 cells, 10 uM, 30 min; active = over 0.2 and 3.5 SD of the protein, either way, in both replicates (recomputed)
bafetinib = compound: Cc1ccc(NC(=O)c2ccc(CN3CC[C@H](N(C)C)C3)c(C(F)(F)F)c2)cc1Nc1nccc(-c2cncnc2)n1 [bafetinib]
Method in brief: (§1)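 Soluble protein was defined as the supernatant after 21,000xg for 90 min. It came from K562 cells at 2×10^6 cells/mL given 10 μM compound for 30 min, heated in aliquots for 3 min across 48°C-58°C, pooled, and extracted in PBS with 0.5% NP-40 at 4°C, and was quantified by TMTpro 16plex LC-MS/MS with equalised channel sums. Thermal stability against control samples, from duplicates, is reported as log2 fold change.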

[1] = compound: Cc1cccc(CC(=O)N2CCc3c2ccc(-c2cn(C)c4ncnc(N)c24)c3F)n1
Method in brief: as §1

nilotinib = compound: Cc1cn(-c2cc(NC(=O)c3ccc(C)c(Nc4nccc(-c5cccnc5)n4)c3)cc(C(F)(F)F)c2)cn1 [nilotinib]
Method in brief: as §1

[2] = compound: Cc1nc(Nc2n[nH]c3c2CN(C(=O)N[C@H](CN(C)C)c2ccccc2)C3(C)C)c2sccc2n1
Method in brief: as §1

dasatinib = compound: Cc1nc(Nc2ncc(C(=O)Nc3c(C)cccc3Cl)s2)cc(N2CCN(CCO)CC2)n1 [dasatinib]
Method in brief: as §1

[3] = compound: Cc1ncc(-c2ccnc(Nc3ccc(S(C)(=O)=O)cc3)n2)n1C(C)C
Method in brief: as §1

[4] = compound: Cn1cc(-c2ccc3c(c2)CCN3C(=O)Cc2cccc(C(F)(F)F)c2)c2c(N)ncnc21
Method in brief: as §1

[5] = compound: Cn1cc(-c2ccc3nnc(C(F)(F)c4ccc5ncccc5c4)n3n2)cn1
Method in brief: as §1

tipifarnib = compound: Cn1cncc1[C@@](N)(c1ccc(Cl)cc1)c1ccc2c(c1)c(-c1cccc(Cl)c1)cc(=O)n2C [tipifarnib]
Method in brief: as §1

mubritinib = compound: FC(F)(F)c1ccc(/C=C/c2nc(COc3ccc(CCCCn4ccnn4)cc3)co2)cc1 [mubritinib]
Method in brief: as §1

[6] = compound: NC(=O)Nc1cc(-c2cccc(F)c2)sc1C(=O)N[C@H]1CCCNC1
Method in brief: as §1

[7] = compound: NC(=O)c1cnc(N[C@@H]2CCCC[C@@H]2N)nc1Nc1cccc(-n2nccn2)c1
Method in brief: as §1

[8] = compound: NC1(c2ccc(-c3nc4ccn5c(=O)[nH]nc5c4cc3-c3ccccc3)cc2)CCC1
Method in brief: as §1

[9] = compound: NCC(=O)Nc1ccc(-n2nc(C(F)(F)F)cc2-c2ccc3c(ccc4ccccc43)c2)cc1
Method in brief: as §1

entinostat = compound: Nc1ccccc1NC(=O)c1ccc(CNC(=O)OCc2cccnc2)cc1 [entinostat]
Method in brief: as §1

vorinostat = compound: O=C(CCCCCCC(=O)Nc1ccccc1)NO [vorinostat]
Method in brief: as §1

citarinostat = compound: O=C(CCCCCCNC(=O)c1cnc(N(c2ccccc2)c2ccccc2Cl)nc1)NO [citarinostat]
Method in brief: as §1

silmitasertib = compound: O=C(O)c1ccc2c(c1)nc(Nc1cccc(Cl)c1)c1ccncc12 [silmitasertib]
Method in brief: as §1

[10] = compound: O=C1NC(=O)C(c2cnc3ccccn23)=C1c1cn2c3c(cc(F)cc13)CN(C(=O)N1CCCCC1)CC2
Method in brief: as §1

[11] = compound: c1cc(OCCN2CCCCC2)cc(-c2n[nH]c3ccc(-c4nnc[nH]4)cc23)c1
Method in brief: as §1

Target | log2 fold change (bafetinib) | log2 fold change [1] | log2 fold change (nilotinib) | log2 fold change [2] | log2 fold change (dasatinib) | log2 fold change [3] | log2 fold change [4] | log2 fold change [5] | log2 fold change (tipifarnib) | log2 fold change (mubritinib) | log2 fold change [6] | log2 fold change [7] | log2 fold change [8] | log2 fold change [9] | log2 fold change (entinostat) | log2 fold change (vorinostat) | log2 fold change (citarinostat) | log2 fold change (silmitasertib) | log2 fold change [10] | log2 fold change [11]
RAB14 (UniProt P61106) | inactive: -0.026 | inactive: -0.042 | inactive: 0.003 | inactive: 0.024 | inactive: 0.019 | inactive: -0.005 | inactive: 0.025 | inactive: -0.009 | inactive: -0.049 | inactive: 0.022 | inactive: 0.002 | inactive: -0.024 | inactive: -0.003 | inactive: -0.012 | inactive: -0.009 | inactive: -0.044 | inactive: 0.033 | inactive: 0.005 | inactive: -0.011 | inactive: -0.005
RAB6A isoform 2 (UniProt P20340) | inactive: 0.015 | inactive: 0.007 | inactive: 0.003 | inactive: 0.004 | inactive: 0.032 | inactive: -0.006 | inactive: 0.027 | inactive: 0.017 | inactive: -0.008 | inactive: -0.005 | inactive: 0.023 | inactive: 0.02 | inactive: 0 | inactive: 0.006 | inactive: -0.002 | inactive: -0.021 | inactive: -0.041 | inactive: -0.013 | inactive: -0.161 | inactive: 0.006
RBM12 (UniProt Q9NTZ6) | inactive: 0.026 | inactive: 0.046 | inactive: -0.108 | inactive: -0.227 | inactive: -0.287 | inactive: -0.09 | inactive: 0.048 | inactive: 0.015 | inactive: -0.061 | inactive: 0.032 | inactive: -0.044 | inactive: -0.062 | inactive: -0.219 | inactive: -0.106 | inactive: 0.133 | inactive: 0.128 | inactive: 0.107 | inactive: -0.026 | inactive: -0.219 | inactive: -0.002
RAB31 (UniProt Q13636) | inactive: -0.026 | inactive: -0.042 | inactive: 0.011 | inactive: 0.019 | inactive: 0.001 | inactive: 0.012 | inactive: 0.061 | inactive: -0.01 | inactive: 0.026 | inactive: 0.015 | inactive: -0.078 | inactive: 0.027 | inactive: -0.032 | inactive: -0.004 | inactive: -0.06 | inactive: -0.033 | inactive: -0.003 | inactive: -0.016 | inactive: -0.054 | inactive: 0.026
RBM27 (UniProt Q9P2N5) | inactive: 0.007 | inactive: 0.078 | inactive: 0.019 | active: -0.91 | inactive: -0.07 | inactive: -0.07 | inactive: 0.053 | inactive: 0.041 | inactive: -0.005 | inactive: 0.023 | inactive: -0.151 | inactive: -0.015 | inactive: -0.058 | inactive: -0.042 | inactive: 0.044 | inactive: 0.125 | inactive: 0.04 | inactive: -0.078 | inactive: -0.056 | inactive: -0.064
RAC2 (UniProt P15153) | inactive: 0.014 | inactive: -0.033 | inactive: 0.049 | inactive: 0.025 | inactive: 0.061 | inactive: -0.001 | inactive: -0.008 | inactive: 0.058 | inactive: 0.017 | inactive: 0.018 | inactive: -0.059 | inactive: 0.005 | inactive: 0 | inactive: -0.024 | inactive: -0.031 | inactive: -0.043 | inactive: -0.014 | inactive: -0.036 | inactive: -0.012 | inactive: -0.01
RAB3GAP2 (UniProt Q9H2M9) | inactive: 0.059 | inactive: 0.091 | inactive: -0.026 | inactive: -0.088 | inactive: -0.14 | inactive: 0.006 | inactive: -0.077 | inactive: -0.029 | inactive: -0.046 | inactive: -0.087 | inactive: -0.049 | inactive: -0.067 | inactive: -0.089 | inactive: -0.04 | inactive: 0.057 | inactive: 0.106 | inactive: 0.089 | inactive: 0.095 | inactive: 0.099 | inactive: -0.065
RAC3 (UniProt P60763) | inactive: 0.015 | inactive: -0.221 | inactive: 0.03 | inactive: 0.036 | inactive: -0.169 | inactive: -0.016 | inactive: 0.107 | inactive: 0.064 | inactive: 0.03 | inactive: -0.008 | inactive: -0.142 | inactive: 0.067 | inactive: 0.058 | inactive: -0.002 | inactive: -0.14 | inactive: -0.037 | inactive: -0.007 | inactive: 0.016 | inactive: -0.083 | inactive: 0.176
RAD51C (UniProt O43502) | inactive: -0.118 | inactive: 0.02 | inactive: -0.007 | inactive: -0.039 | inactive: -0.107 | inactive: 0.003 | inactive: 0.005 | inactive: 0.009 | inactive: 0.068 | inactive: 0.091 | inactive: -0.063 | inactive: -0.027 | inactive: -0.087 | inactive: -0.036 | inactive: -0.028 | inactive: 0.036 | inactive: -0.03 | inactive: -0.005 | inactive: -0.013 | inactive: 0.036
RAB43 (UniProt Q86YS6) | inactive: -0.02 | inactive: -0.192 | inactive: 0.002 | inactive: 0.018 | inactive: -0.006 | inactive: -0.026 | inactive: 0 | inactive: -0.135 | inactive: 0.006 | inactive: -0.033 | inactive: -0.002 | inactive: -0.003 | inactive: 0.017 | inactive: 0.058 | inactive: -0.093 | inactive: -0.061 | inactive: 0.038 | inactive: -0.048 | inactive: -0.065 | inactive: -0.087
RACGAP1 (UniProt Q9H0H5) | inactive: -0.083 | inactive: 0.001 | inactive: -0.01 | inactive: -0.304 | inactive: -0.017 | inactive: 0.065 | inactive: 0.054 | inactive: -0.139 | inactive: 0.169 | inactive: -0.019 | inactive: -0.005 | inactive: -0.105 | inactive: -0.033 | inactive: -0.106 | inactive: 0.101 | inactive: 0.109 | inactive: -0.036 | inactive: 0.004 | inactive: 0.108 | inactive: -0.142
RAB11FIP1 (UniProt Q6WKZ4) | inactive: -0.042 | inactive: 0.12 | inactive: 0.049 | inactive: -0.198 | inactive: -0.037 | inactive: -0.172 | inactive: 0.008 | inactive: 0 | inactive: 0.003 | inactive: 0.003 | inactive: 0.019 | inactive: -0.121 | inactive: -0.086 | inactive: -0.009 | inactive: 0.041 | inactive: 0.091 | inactive: 0.065 | inactive: 0.016 | inactive: 0 | inactive: -0.07
RAB5B (UniProt P61020) | inactive: -0.003 | inactive: 0.041 | inactive: -0.011 | inactive: 0.017 | inactive: 0.029 | inactive: 0.004 | inactive: -0.014 | inactive: -0.049 | inactive: -0.013 | inactive: 0.026 | inactive: 0.123 | inactive: 0.062 | inactive: -0.033 | inactive: 0.039 | inactive: 0.046 | inactive: -0.031 | inactive: 0.031 | inactive: -0.025 | inactive: 0.009 | inactive: 0.018
RAB13 (UniProt P51153) | inactive: 0.019 | inactive: 0.094 | inactive: 0.022 | inactive: 0.011 | inactive: 0.019 | inactive: 0.018 | inactive: 0.015 | inactive: -0.013 | inactive: -0.056 | inactive: 0.016 | inactive: 0.095 | inactive: 0.027 | inactive: -0.046 | inactive: 0.199 | inactive: 0.074 | inactive: 0.01 | inactive: 0.046 | inactive: -0.024 | inactive: 0.05 | inactive: 0.077
RANBP17 (UniProt Q9H2T7) | inactive: -0.059 | inactive: 0.14 | inactive: -0.134 | inactive: -0.099 | inactive: -0.083 | inactive: 0.021 | inactive: -0.094 | inactive: 0.085 | inactive: 0.036 | inactive: -0.069 | inactive: -0.108 | inactive: -0.586 | inactive: -0.152 | inactive: -0.173 | inactive: 0.122 | inactive: 0.019 | inactive: 0.026 | inactive: -0.079 | inactive: -0.3 | inactive: -0.185
RAB6D (UniProt Q53S08) | inactive: -0.025 | inactive: -0.084 | inactive: -0.024 | inactive: -0.012 | inactive: 0.04 | inactive: -0.076 | inactive: 0.066 | inactive: -0.024 | inactive: 0.01 | inactive: 0.005 | inactive: -0.009 | inactive: 0.006 | inactive: -0.081 | inactive: -0.014 | inactive: -0.015 | inactive: -0.041 | inactive: 0.011 | inactive: -0.007 | inactive: -0.013 | inactive: -0.058
